Results: US8481749B2, “N-(tetrazol-5-yl)- and N-(triazol-5-yl)arylcarboxamides and their use as herbicides” (Bayer Cropscience AG, priority 2010, dated 2013)
Some of these results come from one statement about several compounds together.

Key:
Assay type in all cases: in vivo
Amaranthus retroflexus = experiment: Pre-emergence herbicidal action against harmful plants; settings: application rate 80 g/ha, visual assessment after 3 weeks vs untreated controls (100%=plants have died, 0%=like control)
Abutilon theophrasti [1] = experiment: as above; settings: application rate 80 g/ha, visual assessment after 3 weeks vs untreated controls (100%=plants have died, 0%=like control)
Abutilon theophrasti [2] = experiment: Post-emergence herbicidal action against harmful plants; settings: post-emergence (one-leaf stage), application rate 80 g/ha, visual rating after about 3 weeks vs untreated controls
Veronica persica = experiment: as above; settings: post-emergence (one-leaf stage), application rate 80 g/ha, visual rating after about 3 weeks vs untreated controls

Row | SMILES | herbicidal activity in percent against Amaranthus retroflexus (Amaranthus retroflexus) | herbicidal activity in percent against Abutilon theophrasti (Abutilon theophrasti [1]) | herbicidal activity in percent against Abutilon theophrasti (Abutilon theophrasti [2]) | herbicidal activity in percent against Veronica persica (Veronica persica)
1 | Cn1ncnc1NC(=O)c1ccc(S(C)(=O)=O)c(COCC(F)(F)C(F)F)c1Cl [Compound 1-260] | at least 80% | at least 80% | – | –
2 | Cn1ncnc1NC(=O)c1ccc(S(C)(=O)=O)c(COCC2CCCO2)c1Cl (centres unmarked) [Compound 1-272] | – | – | at least 80% | at least 80%
3 | CCOCCOc1c(S(=O)(=O)CC)ccc(C(=O)Nc2ncnn2C)c1Cl [Compound 1-537] | – | – | at least 80% | at least 80%
4 | Cn1ncnc1NC(=O)c1ccc(S(C)(=O)=O)c(OCCF)c1Cl [Compound 1-549] | at least 80% | at least 80% | – | –
5 | CCS(=O)(=O)c1ccc(C(=O)Nc2ncnn2C)c(Cl)c1OCCF [Compound 1-550] | at least 80% | at least 80% | – | –
6 | CCOc1c(Br)ccc(C(=O)Nc2ncnn2C)c1Cl [Compound 1-605] | – | – | at least 80% | at least 80%
7 | Cc1c(C(=O)Nc2nnnn2C)cccc1S(C)(=O)=O [Compound 4-80] | at least 80% | at least 80% | – | –
8 | CCc1c(C(=O)Nc2nnnn2C)ccc(C(F)(F)F)c1SC [Compound 4-193] | at least 80% | at least 80% | – | –
9 | COCCOc1c(S(C)(=O)=O)ccc(C(=O)Nc2nnnn2C)c1C(F)(F)F [Compound 4-219] | at least 80% | at least 80% | – | –
10 | CCS(=O)(=O)c1ccc(C(=O)Nc2nnnn2C)c(Cl)c1OCCCCOC [Compound 4-287] | at least 80% | at least 80% | – | –
11 | Cn1nnnc1NC(=O)c1ccc(I)cc1Cl [Compound 4-365] | – | – | at least 80% | at least 80%
12 | Cc1c(C(=O)Nc2nnnn2C)ccc(S(C)(=O)=O)c1NCCC1OCCCO1 [Compound 4-460] | at least 80% | at least 80% | – | –
13 | CCCc1c(C(=O)Nc2nnnn2C)ccc(Cl)c1[S+](C)[O-] (centres unmarked) [Compound 4-532] | at least 80% | at least 80% | – | –
14 | CCCc1c(C(=O)Nc2nnnn2C)ccc(Br)c1SC [Compound 4-534] | – | – | at least 80% | at least 80%
15 | Cn1nnnc1NC(=O)c1ccc(C(F)(F)F)c(S(C)(=O)=O)c1F [Compound 4-623] | – | – | at least 80% | at least 80%
16 | CSc1c(C)ccc(C(=O)Nc2nnnn2C)c1Cl [Compound 4-632] | at least 80% | at least 80% | – | –
17 | CCSCCOc1c(Cl)ccc(C(=O)Nc2nnnn2C)c1Cl [Compound 4-664] | at least 80% | at least 80% | – | –
18 | C#CCOc1c(S(=O)(=O)CC)ccc(C(=O)Nc2nnnn2C)c1Cl [Compound 4-719] | – | – | at least 80% | at least 80%
19 | CCOc1c(Br)ccc(C(=O)Nc2nnnn2C)c1Br [Compound 4-769] | at least 80% | at least 80% | – | –
20 | COCCNc1c(S(C)(=O)=O)ccc(C(=O)Nc2nnnn2C)c1C [Compound 4-874] | at least 80% | at least 80% | – | –
21 | CCN(CC)C(=O)COc1c(Br)ccc(C(=O)Nc2nnnn2C)c1C [Compound 4-902] | at least 80% | at least 80% | – | –
22 | CCn1nnnc1NC(=O)c1ccc(C(F)(F)F)cc1S(C)(=O)=O [Compound 5-31] | – | – | at least 80% | at least 80%
23 | CCn1nnnc1NC(=O)c1ccc(Cl)c(SC)c1C [Compound 5-119] | at least 80% | at least 80% | – | –
24 | CCn1nnnc1NC(=O)c1ccc(Cl)c(S(C)(=O)=O)c1C [Compound 5-121] | at least 80% | at least 80% | – | –
25 | CCc1c(C(=O)Nc2nnnn2CC)ccc(C(F)(F)F)c1S(C)(=O)=O [Compound 5-206] | – | – | at least 80% | at least 80%

Row | SMILES | herbicidal activity in percent against Amaranthus retroflexus (Amaranthus retroflexus) | herbicidal activity in percent against Abutilon theophrasti (Abutilon theophrasti [1]) | herbicidal activity in percent against Abutilon theophrasti (Abutilon theophrasti [2]) | herbicidal activity in percent against Veronica persica (Veronica persica)
26 | CCn1nnnc1NC(=O)c1ccc(S(C)(=O)=O)c(OCCCOC)c1C(F)(F)F [Compound 5-231] | at least 80% | at least 80% | – | –
27 | CCn1nnnc1NC(=O)c1ccc(S(=O)(=O)CC)c(OC(C)C)c1Cl [Compound 5-281] | at least 80% | at least 80% | – | –
28 | CCn1nnnc1NC(=O)c1ccc(I)cc1Cl [Compound 5-386] | – | – | at least 80% | at least 80%
29 | CCn1nnnc1NC(=O)c1ccc(Br)c(OCCCSC)c1C [Compound 5-423] | at least 80% | at least 80% | – | –
30 | CCn1nnnc1NC(=O)c1ccc(S(C)(=O)=O)c(NC(=O)OCCOC)c1C [Compound 5-437] | – | – | at least 80% | at least 80%
31 | CCn1nnnc1NC(=O)c1ccc(S(C)(=O)=O)c(OCC2CCCO2)c1C (centres unmarked) [Compound 5-456] | at least 80% | at least 80% | – | –
32 | CCn1nnnc1NC(=O)c1ccc(S(C)(=O)=O)c(OCCn2cccn2)c1C(F)(F)F [Compound 5-586] | – | – | at least 80% | at least 80%
33 | CCn1nnnc1NC(=O)c1ccc(Cl)c(OC)c1Cl [Compound 5-629] | – | – | at least 80% | at least 80%
34 | CCn1nnnc1NC(=O)c1ccc(Cl)c(OCC2CCCO2)c1Cl (centres unmarked) [Compound 5-636] | at least 80% | at least 80% | – | –
35 | CCn1nnnc1NC(=O)c1ccc(Br)c(OCC(=O)N(C)C)c1Br [Compound 5-713] | at least 80% | at least 80% | – | –
36 | CCSCCOc1c(Br)ccc(C(=O)Nc2nnnn2CC)c1Br [Compound 5-716] | – | – | at least 80% | at least 80%
37 | CCn1nnnc1NC(=O)c1ccc(Br)c(OCC(=O)N(C)C)c1C [Compound 5-800] | at least 80% | at least 80% | – | –
38 | CSc1c(S(C)(=O)=O)ccc(C(=O)Nc2nnnn2-c2ccccc2)c1Cl [Compound 6-294] | – | – | at least 80% | at least 80%
39 | C=CCn1nnnc1NC(=O)c1ccc(S(=O)(=O)CC)c(C2=NOC(CC#N)C2)c1Cl (centres unmarked) [Compound 7-55] | at least 80% | at least 80% | – | –
40 | CCCn1nnnc1NC(=O)c1ccc(Cl)cc1S(C)(=O)=O [Compound 7-106] | at least 80% | at least 80% | – | –
41 | CCCn1nnnc1NC(=O)c1ccc(Cl)c(S(C)(=O)=O)c1C [Compound 7-127] | – | – | at least 80% | at least 80%
42 | CCCn1nnnc1NC(=O)c1ccc(C(F)(F)F)c([S+](C)[O-])c1CC (centres unmarked) [Compound 7-173] | at least 80% | at least 80% | – | –
43 | CCCc1c(C(=O)Nc2nnnn2CCC)ccc(Br)c1[S+](C)[O-] (centres unmarked) [Compound 7-215] | – | – | at least 80% | at least 80%
44 | CCCn1nnnc1NC(=O)c1ccc(Cl)c([S+](C)[O-])c1Cl (centres unmarked) [Compound 7-299] | at least 80% | at least 80% | – | –
45 | CCCOc1c(S(=O)(=O)CC)ccc(C(=O)Nc2nnnn2CCC)c1Cl [Compound 7-321] | – | – | at least 80% | at least 80%
46 | CCCn1nnnc1NC(=O)c1ccc(S(=O)(=O)CC)c(OCCF)c1Cl [Compound 7-329] | at least 80% | at least 80% | – | –
47 | CCCn1nnnc1NC(=O)c1ccc(S(=O)(=O)CC)c(C2=NOC(C)(COC)C2)c1Cl (centres unmarked) [Compound 7-413] | at least 80% | at least 80% | – | –
48 | Cc1nc(Cl)ccc1C(=O)Nc1nnnn1C [Compound 8-4] | at least 80% | at least 80% | – | –
49 | C=CCOCc1nc(C(F)(F)F)ccc1C(=O)Nc1nnnn1CCC [Compound 8-66] | at least 80% | at least 80% | – | –
